From patent publication US4606911A, “Pharmaceutical composition for the prevention of dental caries” (Rohto Pharmaceutical Co. Ltd., priority 1984, dated 1986)
Read-outs that look alike come from different tables or passages of the source. At least one structure is not confirmed: it was looked up by name or label, or the drawing left a doubt.

Tested on: S. mutans OMZ 176 (serotype d)
Format: cell-based
Description: The adherence-inhibiting activity of the triterpenes of the formula (I) was measured using an inner wall of a test tube in place of the surface of a tooth.
To 2.9 ml of BHI medium containing 5% sucrose in a test tube (i) are added 30 μl of a sample solution prepared by dissolving a compound of: the formula (I) in H2 O or dimethylsulfoxide (DMSO) and 100 μl of culture medium containing S. mutans OMZ 176 (serotype d) which was preincuvated at 37° C. for 24 hours in BHI medium, and the mixture is incubated at 37° C. for 20 hours, with the test tube being maintained at a slant of 30°. The test tube is revolved gently two or three times and the supernatant is transferred to another test tube (ii). To the first test tube (i) is added 3 ml of 50 mM phosphate buffer (pH 7.5), and the test tube is gently revolved two or three times. The resultant supernatant is transferred to the third test tube (iii). The test tubes (ii) and (iii) are each centrifuged and respective supernatants are discarded. To each of the test tubes (i), (ii) and (iii) is added 3 ml of 0.5M NaOH, and the test tubes are shaken to suspend bacterial cells. Absorbance of the resulting suspension is measured at 660 nm. The absorbances obtained with respect to the test tube (i), (ii) and (iii) are represented by Ab(i), Ab(ii) and Ab(iii), respectively. Ab(i) reflects the amount of the bacterial cells adhered to the wall of the test tube and Ab(ii) and Ab(iii) correspond to the amount of the bacterial cells not adhered to the wall.
The same procedure is repeated using 30 μl of distilled water or DMSO in place of the sample solution to obtain a control. The absorbance of the control is represented by Ab(Cont.).
Adherence percentage of bacteria is calculated from the following equation. [formula]
Adherence inhibitory percentage (AIP) is calculated using the adherence percentage according to the following equation. [formula]
The magnitude of adherence-inhibiting activity of each of the samples is shown, in Table 3, by the use of the following symbols: […]

Measured: Adherence-inhibiting activity (AIP)

CC1(C)[C@@H](O)CC[C@]2(C)[C@H]3CC=C4[C@@H]5C[C@@]6(C)CC[C@]5(C(=O)O)[C@H]6C[C@@]4(C)[C@]3(C)CC[C@@H]12 [Pfaffic acid]
- (the same as control (AIP < 25%)): 10 μg/ml | 20 μg/ml | 30 μg/ml | 50 μg/ml | 100 μg/ml
